# Screening data

The results are deposited in PubChem (AID1347112; NCATS, 2019).

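Cell-killing in a pediatric rhabdoid tumor line, gauged by a luminescent viable-cell signal after two days of treatment. Compounds were titrated in dilution series reaching about 46 µM, and potency was fitted from the resulting curve. The value is the fitted half-maximal potency for lowering viability; smaller numbers mean stronger cytotoxic potency. Calls come from curve class and activity score: scores of 40–100 mean active, 1–39 mean inconclusive (weak, partial, poorly fitted or top-dose-only curves), and flat class-4 curves are inactive.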

Values are in nM. All entries here are filed as inconclusive. These entries are mostly ones the record files as inconclusive; other results of the assay are not listed here. A potency from a partial, single-point or poor curve is only a rough figure. Some entries filed as inconclusive have a full curve. Activity scores are not listed here.

SMILES | Potency (nM) | curve
O=C(O)Cc1ccccc1 | 36924 | cytotoxic, single point
Nc1ccn([C@@H]2O[C@H](CO)[C@@H](O)[C@H]2O)c(=O)n1 | 13101 | cytotoxic, partial curve, poor fit
CCCCC(=O)O[C@]1(C(=O)CO)CC[C@H]2[C@@H]3CCC4=CC(=O)CC[C@]4(C)[C@H]3[C@@H](O)C[C@@]21C | 36924 | cytotoxic, single point
CCc1nc(N)nc(N)c1-c1ccc(Cl)cc1 | 8266 | cytotoxic, full curve
CC(CCc1ccc(O)cc1)NCCc1ccc(O)c(O)c1 (stereo not shown) | 10406 | cytotoxic, single point
CNC1CCC(N(Cc2cccc(-c3ccncc3)c2)C(=O)c2sc3c(F)ccc(F)c3c2Cl)CC1 (stereo not shown) | 26140 | cytotoxic, single point
Nc1ccn([C@@H]2O[C@H](CO)[C@H](O)C2(F)F)c(=O)n1 | 16493 | cytotoxic, partial curve, poor fit
CC(=O)O[C@]1(C(C)=O)CC[C@@H]2[C@@H]3C[C@H](C)C4=CC(=O)CC[C@]4(C)[C@H]3CC[C@@]21C | 23297 | cytotoxic, partial curve
COc1cc2c(cc1Cc1cccc(Cl)c1F)c(=O)c(C(=O)O)cn2[C@H](CO)C(C)C | 23297 | cytotoxic, single point
C[C@]12Cc3cn[nH]c3C[C@@H]1CC[C@@H]1[C@H]2CC[C@@]2(C)[C@H]1CC[C@]2(C)O | 927.5 | cytotoxic, full curve, poor fit
CC(C)n1c(C=C[C@H](O)C[C@H](O)CC(=O)O)c(-c2ccc(F)cc2)c2ccccc21 | 3692 | cytotoxic, full curve
Cc1cc(C2CCCCC2)n(O)c(=O)c1 | 10406 | cytotoxic, partial curve
Cc1cc(C(=O)N2CCN(c3cccc(Cl)c3)CC2)n(-c2ccccc2)n1 | 13101 | cytotoxic, partial curve
CO[C@@H]1[C@H](N(C)C(=O)c2ccccc2)C[C@H]2O[C@]1(C)n1c3ccccc3c3c4c(c5c6ccccc6n2c5c31)C(=O)NC4 | 9275 | cytotoxic, single point
O=C(Nc1ncc(-c2cc(C(F)F)nn2-c2c(Cl)cccc2Cl)s1)C1CC1 | 1470 | cytotoxic, full curve
O=C(Nc1cccc(Br)c1)c1cccc(S(=O)(=O)N2CCCCCC2)c1 | 29330 | cytotoxic, single point
CN(C)C1CCN(C(=O)c2ccc(NC(=O)Nc3nc(N4CCOCC4)nc(N4CCOCC4)n3)cc2)CC1 | 6566 | cytotoxic, partial curve
C[C@]1(c2nc3c(C(N)=O)cccc3[nH]2)CCCN1 | 36924 | cytotoxic, single point
O=C1NC(=O)C(=Cc2ccc3nccc(-c4ccncc4)c3c2)S1 | 11676 | cytotoxic, partial curve
CN(C)C(=S)SSC(=S)N(C)C | 16493 | cytotoxic, partial curve, poor fit
O=C(NC1CC1)c1cccc(-c2ccc3c(NC(=O)C4CC4)n[nH]c3c2)c1 | 18506 | cytotoxic, partial curve
COc1cc(C(C)=O)ccc1OCCCN1CCC(c2noc3cc(F)ccc23)CC1 | 36924 | cytotoxic, partial curve, poor fit
CCC(C)n1ncn(-c2ccc(N3CCN(c4ccc(OC[C@H]5CO[C@](Cn6cncn6)(c6ccc(Cl)cc6Cl)O5)cc4)CC3)cc2)c1=O (stereo partly shown) | 18506 | cytotoxic, partial curve
Cc1cnc(Nc2ccc(CN3CCOCC3)cc2)nc1Nc1cccc(S(=O)(=O)NC(C)(C)C)c1 | 23297 | cytotoxic, single point
CN1N=C(N)c2cn([C@@H]3O[C@H](COP(=O)(O)O)[C@@H](O)[C@@H]3O)c3ncnc1c23 | 13101 | cytotoxic, partial curve
CCn1cc(-c2ccnc3[nH]c(-c4cccc(CN(C)C)c4)cc23)c(-c2ccc(NC(=O)N(C)C)cc2)n1 | 14700 | cytotoxic, partial curve
CN(C)CCCN1c2ccccc2Sc2ccc(C(F)(F)F)cc21 | 36924 | cytotoxic, single point
COc1cc(N2CCC(N3CCN(C)CC3)CC2)ccc1Nc1ncc(Cl)c(Nc2ccccc2S(=O)(=O)C(C)C)n1 | 32909 | cytotoxic, single point
N[C@@]1(C(=O)O)CS(=O)(=O)[C@H]2[C@H](C(=O)O)[C@H]21 | 1649 | cytotoxic, full curve
Cc1cn2c(-c3cn[nH]c3)cnc2c(Nc2ccc(C(=O)N3CCNCC3)cc2F)n1 | 13101 | cytotoxic, partial curve
CON(C)C(=O)N1N=C(c2cc(F)ccc2F)S[C@]1(CCCN)c1ccccc1 | 9.3 | cytotoxic, full curve
C[C@@]1(C(=O)Nc2ccc(F)nc2)CCCN1c1nc(Nc2cc(C3CC3)[nH]n2)c2cccn2n1 | 14700 | cytotoxic, partial curve